US20240075036A1, “THERAPEUTIC COMBINATIONS INCLUDING INHIBITORS OF THE P2X4 RECEPTOR FOR TREATING AND PREVENTING PROLIFERATIVE DISORDERS” (CHEMOTHERAPEUTISCHES FORSCHUNGSINSTITUT GEORG-SPEYER-HAUS, priority 2021, published 2024)
Like-named read-outs stand apart in the source and are kept apart here. For at least one compound, name, drawing or mass did not settle the structure.

Columns and labels:
[1] = test system: Lgr5EGFP-DTR(+) tumor organoids; experiment: Tumor organoid survival / cell death upon treatment with or without DT; type: cell-based, mice; settings: rapamycin (10 μM) combined with DT (20 ng/ml); within 24 hours; selectively in DTR expressing tumor organoids
Excerpt: Representative images are shown from at least three independent experiments. c, Average tumor size was counted on serial hematoxylin and eosin (H&E) stained sections on day 9 after 4 injections of either DT or vehicle. Data are mean±SD, n≥8/treatment. p>0.05 (n.s., not significant) by two-tailed Student's t-test. d, Immunohistochemical analysis and quantification of Lgr5-EGFP expression in GFP-stained colon tumor from Lgr5EGFP-DTR(+) mice on day 9 treated with DT as indicated in a). Representative images are shown (n≥8/treatment, scale bar=300 μm). […] Representative images are shown from four independent experiments (n=4/treatment, scale bar=200 μm). Data represent mean±SD, n=4/treatment. p>0.05 (n.s., not significant) by two-tailed Student's t-test. f, Flow cytometric analysis of Lgr5-EGFP+tumor cells from Lgr5EGFP-DTR(+) tumor organoids 24 h after DT treatment. Representative results are shown (n≥3). g, AOM/DSS colon tumor organoids from Lgr5EGFP-DTR(−) and Lgr5EGFP-DTR(+) mice were treated with DT (20 ng/ml) for 24 h. Representative images are shown from two independent experiments (scale bar=200 μm). h, Immunoblot analysis of Lgr5EGFP-DTR(+) and Lgr5EGFP-DTR(−) tumor organoids treated with DT for 24 h. […] 1, Control and raptor knockdown Lgr5EGFP-DTR(+) tumor organoids were passaged and counted after 72 h. […]

[2] = test system: subcutaneous AOM/DSSATKN tumors; type: in vivo, NSG mice
[3] = test system: AOM/DSS induced colon tumors; experiment: AOM/DSS induced colon tumors in Lgr5EGFP-DTR(+) mice; type: in vivo; settings: DT/rapamycin applied

SMILES: CO[C@H]1C[C@@H]2CC[C@@H](C)[C@@](O)(O2)C(=O)C(=O)N2CCCC[C@H]2C(=O)O[C@H]([C@H](C)C[C@@H]2CC[C@@H](O)[C@H](OC)C2)CC(=O)[C@H](C)/C=C(\C)[C@@H](O)[C@@H](OC)C(=O)[C@H](C)C[C@H](C)/C=C/C=C/C=C/1C [rapamycin]
- cell death [1]: substantial cell death
- tumor cell apoptosis (cleaved caspase 3 immunostaining) ([2]; DT/rapamycin, 6 h after treatment): only few Lgr5+ and Lgr5− apoptotic tumor cells
- tumor cell apoptosis (cleaved caspase 3 immunostaining) ([2]; DT/rapamycin, 12 h after treatment): massive apoptosis
- tumor cell apoptosis (cleaved caspase 3, histology) ([2]; DT/rapamycin, 18 h post treatment): apoptosis was completed and most of the remaining Lgr5-tumor cells dead
- histological assessment: viable epithelial tumor cells ([2]; DT/rapamycin, 24 h after treatment): absence of viable epithelial tumor cells
- proliferating tumor cells ([2]; mouse, in vivo): loss of proliferating tumor cells
- tumor growth of subcutaneously transplanted tumors ([2]; mouse, in vivo): significantly reduced tumor growth
- tumor growth of established tumors ([2]; prolonged rapamycin (10 mg/kg once per day) plus Lgr5+ cell ablation (DT every two days)): marked tumor shrinkage
- tumor growth of established tumors ([2]; single agent, individually applied): tumor stasis
- c-myc and cyclin D1 expression [3]: markedly reduced
- tumor cell proliferation ([3]; AOM/DSS induced tumors): marked reduction in tumor cell proliferation
